Data as given in PubChem BioAssay AID743121 (NCATS, 2013)

Test: 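Genes whose silencing strengthens cell killing by camptothecin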 (primary screen)
System: MDA-MB-231 cells, a human breast cancer line
Reagent: single siRNA against human genes, 20 nM siRNA (0.8 pmol per well)
Duration: 120 h (drug added 48 h after transfection, read 72 h later)
Conditions: camptothecin 20 nM (about EC30) for 72 h; vehicle 0.1% DMSO in parallel plates
Detection: 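Cell viability by ATP luminescence (CellTiter-Glo) as % of non-targeting siRNA wells, and the log2 ratio of viability without drug over viability with camptothecin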
Reading the numbers: log2 vehicle/camptothecin viability: higher = stronger sensitisation to camptothecin; viability with camptothecin: higher = more viable cells
Units: viability with camptothecin in % of control
Active means: 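Each gene scored by redundant siRNA activity (RSA) over its individual siRNA ratios; a gene is called active at p < 0.001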
Here is an unselected part of about 26,000 deposited reagents. In the full data, 167 (0.63%) were called active. 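Calls are per gene from RSA p-values that are not deposited; an individual active-marked siRNA can sensitise only weakly.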 Entries without a mark were called inactive. Reagents against one gene are numbered here. Further read-outs or replicates are left out here.

For STOML2 (GeneID 30968) #1, what was measured?
log2 vehicle/camptothecin viability: -0.275; viability with camptothecin: 61.3

What is on record for STOML2 (GeneID 30968) #2?
log2 vehicle/camptothecin viability: -0.111; viability with camptothecin: 81.3

With STOML2 (GeneID 30968) #3, how do the results read?
log2 vehicle/camptothecin viability: -0.0686; viability with camptothecin: 74.2

For STOML2 (GeneID 30968) #4, what was measured?
log2 vehicle/camptothecin viability: -0.386; viability with camptothecin: 108

With OR7A5 (GeneID 26659) #1, what does the deposit list?
log2 vehicle/camptothecin viability: -0.174; viability with camptothecin: 85.2

What is on record for OR7A5 (GeneID 26659) #2?
log2 vehicle/camptothecin viability: -0.0761; viability with camptothecin: 108

For OR7A5 (GeneID 26659) #3, what does the deposit list?
log2 vehicle/camptothecin viability: -0.572; viability with camptothecin: 101

Which result is listed for OR7A5 (GeneID 26659) #4?
log2 vehicle/camptothecin viability: -0.0972; viability with camptothecin: 82.4

How did the screen score BCL3 (GeneID 602) #1?
log2 vehicle/camptothecin viability: -0.0184; viability with camptothecin: 94.7

For BCL3 (GeneID 602) #2, how do the results read?
log2 vehicle/camptothecin viability: -0.0223; viability with camptothecin: 85.4

How did the screen score BCL3 (GeneID 602) #3?
log2 vehicle/camptothecin viability: -0.264; viability with camptothecin: 83

With BCL3 (GeneID 602) #4, what was measured?
log2 vehicle/camptothecin viability: -0.344; viability with camptothecin: 94.4

What did the screen give for LTBR (GeneID 4055) #1?
log2 vehicle/camptothecin viability: 0.0508; viability with camptothecin: 65.2

For LTBR (GeneID 4055) #2, what does the deposit list?
log2 vehicle/camptothecin viability: -0.112; viability with camptothecin: 96.7

Which result is listed for LTBR (GeneID 4055) #3?
log2 vehicle/camptothecin viability: -0.503; viability with camptothecin: 77.9

What did the screen give for LTBR (GeneID 4055) #4?
log2 vehicle/camptothecin viability: -0.279; viability with camptothecin: 52.7

Which result is listed for SCARA3 (GeneID 51435) #1?
log2 vehicle/camptothecin viability: -0.0527; viability with camptothecin: 80.3

With SCARA3 (GeneID 51435) #2, what does the deposit list?
log2 vehicle/camptothecin viability: -0.0632; viability with camptothecin: 118

With SCARA3 (GeneID 51435) #3, how do the results read?
log2 vehicle/camptothecin viability: 0.293; viability with camptothecin: 17.9

How did the screen score SCARA3 (GeneID 51435) #4?
log2 vehicle/camptothecin viability: -0.515; viability with camptothecin: 42.3

Which result is listed for CAPN5 (GeneID 726) #1?
log2 vehicle/camptothecin viability: -0.206; viability with camptothecin: 47.2

With CAPN5 (GeneID 726) #2, what was measured?
log2 vehicle/camptothecin viability: -0.346; viability with camptothecin: 62.7

For CAPN5 (GeneID 726) #3, what does the deposit list?
log2 vehicle/camptothecin viability: 0.0981; viability with camptothecin: 96.5

How did the screen score CAPN5 (GeneID 726) #4?
log2 vehicle/camptothecin viability: 0.366; viability with camptothecin: 59.4

What is on record for UNC5D (GeneID 137970) #1?
log2 vehicle/camptothecin viability: -0.0782; viability with camptothecin: 78.9

With UNC5D (GeneID 137970) #2, what was measured?
log2 vehicle/camptothecin viability: -0.054; viability with camptothecin: 19.3

For UNC5D (GeneID 137970) #3, what was measured?
log2 vehicle/camptothecin viability: -0.417; viability with camptothecin: 80.8

Which result is listed for P2RY4 (GeneID 5030) #1?
log2 vehicle/camptothecin viability: -0.143; viability with camptothecin: 98.8

For P2RY4 (GeneID 5030) #2, how do the results read?
log2 vehicle/camptothecin viability: -0.288; viability with camptothecin: 115

How did the screen score P2RY4 (GeneID 5030) #3?
log2 vehicle/camptothecin viability: -0.113; viability with camptothecin: 73.3

Which result is listed for P2RY4 (GeneID 5030) #4?
log2 vehicle/camptothecin viability: -0.0283; viability with camptothecin: 35

What is on record for LPL (GeneID 4023) #1?
log2 vehicle/camptothecin viability: 0.119; viability with camptothecin: 30.5

For LPL (GeneID 4023) #2, what does the deposit list?
log2 vehicle/camptothecin viability: -0.0782; viability with camptothecin: 69.3

With LPL (GeneID 4023) #3, how do the results read?
log2 vehicle/camptothecin viability: -0.224; viability with camptothecin: 64

With LPL (GeneID 4023) #4, how do the results read?
log2 vehicle/camptothecin viability: -0.0513; viability with camptothecin: 91.4
